Results on two sequences are retold here after PMC6327505, “Adaption to glucose limitation is modulated by the pleotropic regulator CcpA, independent of selection pressure strength”.

For this data set, the target named is T1, CcpA-Met19 (wild type, Genr0) (Lactococcus lactis MG1363 (strain Genr0)) (UniProt A2RJC5).
T1 sequence (looked up, limits assumed): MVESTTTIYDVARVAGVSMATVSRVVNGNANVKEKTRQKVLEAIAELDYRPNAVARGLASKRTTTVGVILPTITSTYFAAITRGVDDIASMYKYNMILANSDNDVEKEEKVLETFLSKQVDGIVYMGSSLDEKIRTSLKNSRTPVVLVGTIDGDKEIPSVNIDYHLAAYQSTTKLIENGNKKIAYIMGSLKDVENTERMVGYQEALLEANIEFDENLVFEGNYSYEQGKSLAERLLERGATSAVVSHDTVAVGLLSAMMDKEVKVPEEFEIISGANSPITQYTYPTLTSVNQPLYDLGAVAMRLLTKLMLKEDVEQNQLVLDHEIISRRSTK
Briefly: EMSA. As to conditions: 100-800 nM CcpA, 4 nM DNA, EMSA: 20 mM Tris-HCl pH 8, 100 mM KCl, 10 mM MgCl2, 1 mM EDTA, 1 mM DTT, 5% glycerol, 40 ug/ml BSA, 4 nM Cy3-DNA, 30 C 20 min, 7.5% native PAGE in TBE, recombinant protein, protein details: N-terminal 6xHis (pQE30), label: 5'-Cy3 on (+) strand. In general terms: A gel shift assay detects complexes by their altered migration in electrophoresis.

For at least one entry, the source does not settle the construct or the ends of the probe. A weaker result is weaker than the reference pair of the same experiment. At least one verdict rests on a figure or table, not on a statement of the authors. Protein sequences can lack the tags named with them.

“TTCTTACTGTTAGCGCTTTCAGTACG (double strand) [syn cre (perfect cre site)]”: the binding result (lower affinity than Ile19) is recorded as “binds more weakly”.

“AAAAAATAGATAACGCTTGCATTATGAA (double strand) [ptcB cre (F1/R1)]”: the binding result (lower affinity than Ile19, largest difference) was “binds more weakly”.
